Values from PubChem BioAssay AID686938 (Drosophila RNAi Screening Center, 2013)

Purpose: 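Looking for CRAC channel components and the factors controlling them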 (primary screen)
Cell system: Drosophila S2R+ cells
Reagent: long dsRNA against Drosophila genes, about 0.25 µg dsRNA per well, roughly 10,000 cells
Timing: 5 days of knock-down before the calcium assay
Treatment: thapsigargin (SERCA pump blocker) to empty calcium stores; entry signal taken 4 min after adding it
Detection: 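Per-well fluo-4 fluorescence in two replicates, unnormalised, measured in resting cells and 4 min after store depletion by the SERCA blocker thapsigargin; ratio of the two present in few wells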
Direction: calcium entry signal: higher = stronger calcium signal after store depletion; resting calcium signal: higher = higher resting calcium signal
Call rule: 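Called when the plate z-score of the entry-to-rest ratio, mean of duplicates, falls below −3; wells with low overall dye signal (Fmax z below −2) or more than five off-targets excluded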
Calls: active = strongly reduced calcium entry; inactive = no strong reduction
The screen tested about 23,000 reagents; this is a random part of those that have a named target and a result. Over the whole deposit, 75 (0.33%) got an active call. 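Raw plate signals without normalisation; calls rest on plate z-scores that were not deposited; ratio present for only 364 wells.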 Not stated in the record: the dose of the treatment.

no.	predicted target	amplicon	calcium entry signal, replicate 1 (fluorescence units)	calcium entry signal, replicate 2 (fluorescence units)	resting calcium signal, replicate 1 (fluorescence units)	resting calcium signal, replicate 2 (fluorescence units)	Outcome
1	U4-U6-60K	DRSC10624	2.96e7	3.28e7	1.57e7	2.55e7	inactive
2	CG5641	DRSC15852	3.37e7	4.40e7	1.48e7	1.89e7	inactive
3	AOX3	DRSC15955	3.27e7	4.62e7	1.45e7	1.88e7	inactive
4	CG31817	DRSC01537	3.85e7	3.24e7	2.15e7	1.66e7	inactive
5	CG31817	DRSC01538	3.28e7	3.15e7	1.88e7	1.57e7	inactive
6	CG31817	DRSC22476	3.85e7	3.50e7	2.13e7	1.71e7	inactive
7	CG7924	DRSC10931	2.18e7	3.20e7	1.08e7	2.30e7	inactive
8	olf413	DRSC11543	2.99e7	2.88e7	1.32e7	1.27e7	inactive
9	olf413	DRSC11679	3.13e7	3.98e7	1.64e7	2.02e7	inactive
10	olf413	DRSC11721	2.68e7	4.19e7	1.48e7	1.94e7	inactive
11	olf413	DRSC11833	2.65e7	2.57e7	1.43e7	1.34e7	inactive
12	CG34281	DRSC14807	2.95e7	5.34e7	1.67e7	6.26e7	inactive
13	Tailor	DRSC12526	4.56e7	3.09e7	2.32e7	1.64e7	inactive
14	RunxB	DRSC20395	3.26e7	4.12e7	1.63e7	1.82e7	inactive
15	RunxB	DRSC20525	5.31e7	4.50e7	2.49e7	1.98e7	inactive
16	RunxB	DRSC20526	3.26e7	3.46e7	2.11e7	1.90e7	inactive
17	RunxB	DRSC23150	3.78e7	3.15e7	2.38e7	1.44e7	inactive
18	Ythdf	DRSC16036	4.26e7	4.94e7	1.92e7	2.09e7	inactive
19	Ythdf	DRSC16037	3.65e7	4.39e7	1.64e7	1.83e7	inactive
20	CG42792	DRSC01515	3.06e7	4.61e7	1.73e7	2.18e7	inactive
21	CG14089	DRSC10093	2.60e7	4.15e7	1.26e7	1.85e7	inactive
22	CG3552	DRSC10370	2.53e7	3.20e7	1.31e7	1.44e7	inactive
23	tef	DRSC07301	3.81e7	4.19e7	1.86e7	1.90e7	inactive
24	tef	DRSC22041	3.16e7	3.86e7	1.49e7	2.18e7	inactive

Part of the list above, showing only “resting calcium signal, replicate 1 (fluorescence units)”:
CG31817 [DRSC01537] = 2.15e7
CG31817 [DRSC01538] = 1.88e7
CG31817 [DRSC22476] = 2.13e7
CG7924 [DRSC10931] = 1.08e7
